Data from article PMC9523997.
These are yes or no findings as the source states them, for the method shown. Binding seen in cells or lysates may run through a third protein. These calls come from enrichment with a bait or labelling near it, and not all partners need be listed. Tags and fused reporters may be left off the sequences shown.

Protein sequences, listed by entry. Tags and fused reporters are not part of them.
UniProt Q9V727: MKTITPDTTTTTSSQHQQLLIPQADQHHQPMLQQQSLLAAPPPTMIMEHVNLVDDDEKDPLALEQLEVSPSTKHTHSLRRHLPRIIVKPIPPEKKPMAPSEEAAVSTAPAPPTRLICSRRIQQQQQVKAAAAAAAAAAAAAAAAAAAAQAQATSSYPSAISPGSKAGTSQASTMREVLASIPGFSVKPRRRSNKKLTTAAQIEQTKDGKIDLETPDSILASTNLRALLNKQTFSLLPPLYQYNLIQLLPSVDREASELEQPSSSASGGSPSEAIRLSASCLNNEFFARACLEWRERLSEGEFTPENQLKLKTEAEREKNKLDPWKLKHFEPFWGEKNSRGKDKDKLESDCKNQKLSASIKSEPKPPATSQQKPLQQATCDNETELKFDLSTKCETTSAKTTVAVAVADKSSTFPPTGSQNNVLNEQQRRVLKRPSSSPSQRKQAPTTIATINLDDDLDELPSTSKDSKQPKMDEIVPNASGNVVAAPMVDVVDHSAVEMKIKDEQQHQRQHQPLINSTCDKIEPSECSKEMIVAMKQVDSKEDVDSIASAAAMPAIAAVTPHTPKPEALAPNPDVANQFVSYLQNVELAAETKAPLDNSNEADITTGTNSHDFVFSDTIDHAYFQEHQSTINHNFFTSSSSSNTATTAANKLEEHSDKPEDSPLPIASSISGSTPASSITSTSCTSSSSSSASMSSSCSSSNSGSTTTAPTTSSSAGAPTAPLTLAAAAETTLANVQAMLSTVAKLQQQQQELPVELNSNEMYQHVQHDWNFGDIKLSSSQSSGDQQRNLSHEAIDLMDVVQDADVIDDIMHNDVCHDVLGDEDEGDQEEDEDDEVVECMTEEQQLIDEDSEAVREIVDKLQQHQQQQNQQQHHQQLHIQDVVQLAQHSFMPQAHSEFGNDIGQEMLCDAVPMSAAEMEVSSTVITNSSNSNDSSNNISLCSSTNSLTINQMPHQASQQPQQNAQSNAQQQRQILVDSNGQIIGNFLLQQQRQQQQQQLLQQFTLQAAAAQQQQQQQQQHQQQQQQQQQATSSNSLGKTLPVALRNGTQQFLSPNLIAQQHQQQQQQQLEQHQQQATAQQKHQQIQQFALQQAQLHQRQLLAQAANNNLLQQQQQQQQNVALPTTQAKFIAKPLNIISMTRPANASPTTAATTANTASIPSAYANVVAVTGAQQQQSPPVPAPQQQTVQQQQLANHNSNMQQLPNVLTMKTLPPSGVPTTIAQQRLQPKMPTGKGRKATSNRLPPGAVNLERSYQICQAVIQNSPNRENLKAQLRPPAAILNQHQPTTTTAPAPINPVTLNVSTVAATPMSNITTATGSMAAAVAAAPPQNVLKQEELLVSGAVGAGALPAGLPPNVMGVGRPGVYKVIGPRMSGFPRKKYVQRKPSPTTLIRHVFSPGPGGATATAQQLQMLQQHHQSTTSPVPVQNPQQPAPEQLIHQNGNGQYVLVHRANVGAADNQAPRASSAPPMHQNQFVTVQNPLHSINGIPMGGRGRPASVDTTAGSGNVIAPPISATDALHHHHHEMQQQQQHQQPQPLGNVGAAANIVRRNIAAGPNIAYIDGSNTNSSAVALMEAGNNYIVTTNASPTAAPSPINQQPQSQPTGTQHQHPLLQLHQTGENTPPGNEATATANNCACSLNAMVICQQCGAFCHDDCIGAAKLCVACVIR

Biological target: T1, GFP-tagged MBD domain of Drosophila Six-banded (SBA) (Drosophila) (UniProt A8JR92)
T1 sequence: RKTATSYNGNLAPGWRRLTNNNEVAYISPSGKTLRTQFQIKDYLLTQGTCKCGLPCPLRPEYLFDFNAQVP
Experiment: affinity purification with mass spectrometry; GFP-fusion protein purified from Drosophila S2 cells transduced with the GFP-tagged MBD domain of SBA

In the case of “additional sex combs (ASX), endogenous in Drosophila S2 cells (from UniProt Q9V727 1-1669)”, the binding is reported as “binds”.

B1: Calypso, endogenous in Drosophila S2 cells (enzyme, UniProt Q7K5N4 1-471)
chain: MNAAGGGSGAQAAAVAAGNNSLSHNALLSTASGATTMPMAQLADGWLELESDPGLFTLLLKDFGCHDVQVEEVYDLQKPIESPYGFIFLFRWIEERRARRKIVETTAEIFVKDEEAISSIFFAQQVVPNSCATHALLSVLLNCNENNLQLGDTLSRLKTHTKGMSPENKGLAIGNTPELACAHNSHAMPQARRRLERTGAGVSSCRFTGEAFHFVSFVPINGQLFELDGLKPYPMNHGGWEDSEDWTDKFRRVMAERLGIATGEQDIRFNLMAVVPDRRIAITHKLKMLRTNQAIVSGTLQKLLKADEQGESGNGDSQRPDTPTTLLEPSAFTARDLQSLLKNLDTEIAINEQHLADENDRRHMFKVDASRRTHNYDKFICTFLSMLAHQGVLGELVSQHLLPSKKVSGQGAANRISKQSTTASAGGSTAAGTASTPKTQQQQAAAAKNGKSPSKTPGRRRKGRNKCRKRK
B1 was tested, and the binding was “binds”.
